Data as given in doi:10.1101/415992.
Results are given in words; binding and its absence hold for the method and conditions named. Binding seen in cells or lysates may run through a third protein. Some entries that bind do so weakly or less than the wild type. Sequences can lack the tags named with a protein.

Sequences of proteins named here, by UniProt entry; tags and fusion partners are left off.
UniProt P40460: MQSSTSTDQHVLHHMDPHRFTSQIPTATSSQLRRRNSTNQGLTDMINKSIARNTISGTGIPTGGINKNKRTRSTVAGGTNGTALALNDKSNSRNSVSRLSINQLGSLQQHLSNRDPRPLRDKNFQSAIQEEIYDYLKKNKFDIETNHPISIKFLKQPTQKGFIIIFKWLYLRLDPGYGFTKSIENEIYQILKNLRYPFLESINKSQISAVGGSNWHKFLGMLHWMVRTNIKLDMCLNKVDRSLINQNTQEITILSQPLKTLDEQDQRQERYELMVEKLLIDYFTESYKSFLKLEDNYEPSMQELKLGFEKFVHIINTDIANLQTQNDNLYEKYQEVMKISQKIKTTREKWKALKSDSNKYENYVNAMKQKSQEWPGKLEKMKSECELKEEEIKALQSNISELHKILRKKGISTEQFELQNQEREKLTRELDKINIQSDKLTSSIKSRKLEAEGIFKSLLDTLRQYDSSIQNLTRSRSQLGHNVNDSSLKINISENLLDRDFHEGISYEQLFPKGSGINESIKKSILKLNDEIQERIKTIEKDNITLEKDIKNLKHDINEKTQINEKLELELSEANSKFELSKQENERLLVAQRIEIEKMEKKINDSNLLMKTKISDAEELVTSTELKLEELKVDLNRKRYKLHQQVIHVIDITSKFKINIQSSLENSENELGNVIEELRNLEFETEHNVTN

How the values were obtained:
[1] = molecular target: T1, Dsn1-6His-3Flag (budding yeast) (UniProt P40568); assay: co-IP
T1 sequence: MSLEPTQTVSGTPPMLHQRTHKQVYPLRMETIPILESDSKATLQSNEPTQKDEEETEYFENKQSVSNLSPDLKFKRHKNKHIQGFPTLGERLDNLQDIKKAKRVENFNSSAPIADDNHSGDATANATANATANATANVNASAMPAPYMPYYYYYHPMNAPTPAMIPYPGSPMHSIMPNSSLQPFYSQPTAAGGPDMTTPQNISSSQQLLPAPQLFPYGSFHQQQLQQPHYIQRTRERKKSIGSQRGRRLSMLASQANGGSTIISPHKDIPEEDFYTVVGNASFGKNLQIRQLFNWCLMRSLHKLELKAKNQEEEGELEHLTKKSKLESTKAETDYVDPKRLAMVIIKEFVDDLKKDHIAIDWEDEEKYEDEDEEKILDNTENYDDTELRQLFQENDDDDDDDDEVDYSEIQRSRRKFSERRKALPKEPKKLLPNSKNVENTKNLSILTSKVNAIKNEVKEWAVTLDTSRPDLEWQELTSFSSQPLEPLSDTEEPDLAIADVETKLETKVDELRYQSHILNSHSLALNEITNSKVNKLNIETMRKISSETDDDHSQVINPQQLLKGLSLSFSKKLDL

[2] = molecular target: T2, Dad1-3Flag (budding yeast) (UniProt Q12248); assay: co-IP
T2 sequence: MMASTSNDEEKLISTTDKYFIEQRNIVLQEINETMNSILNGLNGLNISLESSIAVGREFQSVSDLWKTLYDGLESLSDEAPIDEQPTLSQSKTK

Row | Molecule | binding [1] | binding [2]
1 | Ndc80 (from UniProt P40460 1-691) | binds | 
2 | Spc105 (protein, UniProt P53148 1-917) MNVDERSRIGGREKDAGPGKGILKQNQSSQMTSSFLENPGVRIPTRIITKKEVLDGSNTTSRINTSNLQSMVKRRVSFAPDVTLHSFTFVPEQNNEIKEPRRRKTSTNSPTKISSQEEPLVTSTQIDDARTEEKTAAEEDPDTSGMELTEPIVATPDSNKASQHDPTSMEMTEVFPRSIRQKNPDVEGESIESSQQIDDVEAVREETMELTAIHNVHDYDSISKDTVEGEPIDLTEYESKPYVPNSVSRSTGKSSDYSVERSNDKSDLSKSENKTNSSQPMEITDIFHADPQNPMSLHSDNNINNDGNEMELTQIQTNFDRDNHHIDESPSEKHAFSSNKRRKLDTVSDYAASVTTPVKEAKDTSGEDNDGDLEMMEKMSPITFSDVDNKIGTRSNDVFTIEPGTEDTGMQTATDDEEDGENVDDNGNKIVEKTRLPEIDKEGQSGIALPTQDYTLREFINEVGVGFLDTKLIDDLDKKVNFPLNSFNFVENQRIDNVFSAFYIDIPILEVEAFRCKELWRSINESKDKFKDFEAQIDKSHPPLLLQEYFSSDEKMKQLMRDQLQLVKGYSKLEAAMEWYEWRKKQLNGLELILAENLNTLKREYEKLNEEVEKVNSIRGKIRKLNEAIKEEIRSLKNLPSDSYKPTLMNRIKIEAFKQELMEHSISLSSSNDFTQEMRSLKLAIAKKSNDILTLRSEVASIDKKIEKRKLFTRFDLPKLRDTLKILESLTGVRFLKFSKATLSIAFLQLDDLRVDINLANFKNNPLSSMKVMNDSNNDDMSYHLFTMLLKNVEAEHQDSMLSNLFFAMKKWRPLLKYIKLLKLLFPVKITQTEEEEALLQFKDYDRRNKTAFFYVISLVSFAQGVFSENGQIPMKVHISTQQDYSPSREVLSDRITHKISGVLPSFTKSRIHLEFT | binds | 
3 | Spc34 (protein, UniProt P36131 1-295) MGESLDRCIDDINRAVDSMSTLYFKPPGIFHNAILQGASNKASIRKDITRLIKDCNHDEAYLLFKVNPEKQSVSRRDGKEGVFDYVIKRDTDMKRNRRLGRPGEKPIIHVPKEVYLNKDRLDLNNKRRRTATTSGGGLNGFIFDTDLIGSSVISNSSSGTFKALSAVFKDDPQIQRLLYALENGSVLMEEESNNQRRKTIFVEDFPTDLILKVMAEVTDLWPLTEFKQDYDQLYHNYEQLSSKLRFIKKEVLLQDDRLKTMSQYHPSSSHDVAKIIRKEKDEIRRLEMEIANLQE |  | binds
